In the supplement of paper PMC8728848:
This is one part of the list.

Experiments:
Assay in all cases: glycan array binding signal (z-score within array); higher = stronger binding
Settings in all cases: glycan notation: IUPAC condensed, linker removed
[1] = biological target: Neu5Ac(a2-6)Gal(b1-4)GlcNAc(b1-2)Man(a1-3)[GlcNAc(b1-2)Man(a1-6)]Man(b1-4)GlcNAc(b1-4)GlcNAc
Method in brief: (§1)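 Negative Z-scores can be read as non-binding. The Z-score is calculated within each array and then averaged across arrays of one protein sequence at different concentrations or buffers and across linkers. Arrays, 3228 in all, were curated from the Consortium for Functional Glycomics database and kept only where the protein sequence was available.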

[2] = biological target: Neu5Ac(a2-6)Gal(b1-4)GlcNAc(b1-2)Man(a1-3)[GlcNAc(b1-2)Man(b1-4)GlcNAc(b1-2)Man(a1-6)]Man(b1-4)GlcNAc(b1-4)GlcNAc
Method in brief: as §1

[3] = biological target: Neu5Ac(a2-6)Gal(b1-4)GlcNAc(b1-2)Man(a1-3)[Man(a1-6)]Man(b1-4)GlcNAc(b1-4)GlcNAc
Method in brief: as §1

[4] = biological target: Neu5Ac(a2-6)Gal(b1-4)GlcNAc(b1-2)Man(a1-3)[Neu5Ac(a2-6)Gal(b1-4)GlcNAc(b1-2)Man(a1-6)]Man(b1-4)GlcNAc(b1-4)GlcNAc
Method in brief: as §1

[5] = biological target: Neu5Ac(a2-6)Gal(b1-4)GlcNAc(b1-2)Man(a1-6)Man(b1-4)GlcNAc(b1-4)GlcNAc
Method in brief: as §1

[6] = biological target: Neu5Ac(a2-6)Gal(b1-4)GlcNAc(b1-2)Man(a1-6)[Gal(b1-4)GlcNAc(b1-2)Man(a1-3)]Man(b1-4)GlcNAc(b1-4)GlcNAc
Method in brief: as §1

[7] = biological target: Neu5Ac(a2-6)Gal(b1-4)GlcNAc(b1-2)Man(a1-6)[GlcNAc(b1-2)Man(a1-3)]Man(b1-4)GlcNAc(b1-4)GlcNAc
Method in brief: as §1

[8] = biological target: Neu5Ac(a2-6)Gal(b1-4)GlcNAc(b1-2)Man(a1-6)[Man(a1-3)]Man(b1-4)GlcNAc(b1-4)GlcNAc
Method in brief: as §1

[9] = biological target: Neu5Ac(a2-6)Gal(b1-4)GlcNAc(b1-3)Gal(b1-3)GlcNAc
Method in brief: as §1

[10] = biological target: Neu5Ac(a2-6)Gal(b1-4)GlcNAc(b1-3)Gal(b1-4)GlcNAc
Method in brief: as §1

[11] = biological target: Neu5Ac(a2-6)Gal(b1-4)GlcNAc(b1-3)Gal(b1-4)GlcNAc(b1-3)Gal(b1-4)GlcNAc
Method in brief: as §1

[12] = biological target: Neu5Ac(a2-6)Gal(b1-4)GlcNAc(b1-3)Gal(b1-4)[Fuc(a1-3)]GlcNAc(b1-3)Gal(b1-4)[Fuc(a1-3)]GlcNAc
Method in brief: as §1

[13] = biological target: Neu5Ac(a2-6)Gal(b1-4)GlcNAc(b1-3)GalNAc
Method in brief: as §1

[14] = biological target: Neu5Ac(a2-6)Gal(b1-4)GlcNAc6S
Method in brief: as §1

Neu5Ac(a2-6)GalNAc = biological target: Neu5Ac(a2-6)GalNAc
Method in brief: as §1

[15] = biological target: Neu5Ac(a2-6)GalNAc(b1-4)GlcNAc
Method in brief: as §1

[16] = biological target: Neu5Ac(a2-6)GlcNAc(b1-4)GlcNAc
Method in brief: as §1

[17] = biological target: Neu5Ac(a2-6)GlcNAc(b1-4)GlcNAc(b1-4)GlcNAc
Method in brief: as §1

Neu5Ac(a2-8)Neu5Ac = biological target: Neu5Ac(a2-8)Neu5Ac
Method in brief: as §1

[18] = biological target: Neu5Ac(a2-8)Neu5Ac(a2-3)Gal(b1-3)GalNAc(b1-4)[Neu5Ac(a2-8)Neu5Ac(a2-3)]Gal(b1-4)Glc
Method in brief: as §1

[19] = biological target: Neu5Ac(a2-8)Neu5Ac(a2-3)Gal(b1-4)Glc
Method in brief: as §1

[20] = biological target: Neu5Ac(a2-8)Neu5Ac(a2-3)[Gal(b1-3)GalNAc(b1-4)]Gal(b1-4)Glc
Method in brief: as §1

[21] = biological target: Neu5Ac(a2-8)Neu5Ac(a2-3)[GalNAc(b1-4)]Gal(b1-4)Glc
Method in brief: as §1

[22] = biological target: Neu5Ac(a2-8)Neu5Ac(a2-8)Neu5Ac
Method in brief: as §1

[23] = biological target: Neu5Ac(a2-8)Neu5Ac(a2-8)Neu5Ac(a2-3)Gal(b1-4)Glc
Method in brief: as §1

[24] = biological target: Neu5Ac(a2-8)Neu5Ac(a2-8)Neu5Ac(a2-3)[GalNAc(b1-4)]Gal(b1-4)Glc
Method in brief: as §1

[25] = biological target: Neu5Ac(a2-8)Neu5Ac(a2-8)Neu5Ac(a2-8)Neu5Ac(a2-3)[GalNAc(b1-4)]Gal(b1-4)Glc
Method in brief: as §1

[26] = biological target: Neu5Ac(b2-6)Gal(b1-4)GlcNAc
Method in brief: as §1

Neu5Ac(b2-6)GalNAc = biological target: Neu5Ac(b2-6)GalNAc
Method in brief: as §1

[27] = biological target: Neu5Ac9Ac(a2-3)Gal(b1-3)GlcNAc
Method in brief: as §1

[28] = biological target: Neu5Ac9Ac(a2-3)Gal(b1-4)GlcNAc
Method in brief: as §1

[29] = biological target: Neu5Ac9Ac(a2-6)Gal(b1-4)GlcNAc
Method in brief: as §1

[30] = biological target: Neu5Gc(a2-3)Gal(b1-3)GlcNAc
Method in brief: as §1

[31] = biological target: Neu5Gc(a2-3)Gal(b1-3)[Fuc(a1-4)]GlcNAc
Method in brief: as §1

Neu5Gc(a2-3)Gal(b1-4)Glc = biological target: Neu5Gc(a2-3)Gal(b1-4)Glc
Method in brief: as §1

[32] = biological target: Neu5Gc(a2-3)Gal(b1-4)GlcNAc
Method in brief: as §1

[33] = biological target: Neu5Gc(a2-3)Gal(b1-4)[Fuc(a1-3)]GlcNAc
Method in brief: as §1

[34] = biological target: Neu5Gc(a2-6)Gal(b1-4)GlcNAc
Method in brief: as §1

Neu5Gc(a2-6)GalNAc = biological target: Neu5Gc(a2-6)GalNAc
Method in brief: as §1

[35] = biological target: Neu5Gc(b2-6)Gal(b1-4)GlcNAc
Method in brief: as §1

B1: DCL-1 (Homo sapiens), Q8IX05 (protein)
chain: MLRAALPALLLPLLGLAAAAVADCPSSTWIQFQDSCYIFLQEAIKVESIEDVRNQCTDHGADMISIHNEEENAFILDTLKKQWKGPDDILLGMFYDTDDASFKWFDNSNMTFDKWTDQDDDEDLVDTCAFLHIKTGEWKKGNCEVSSVEGTLCKTAIPYKRKYLSDNHILISALVIASTVILTVLGAIIWFLYKKHSDSRFTTVFSTAPQSPYNEDCVLVVGEENEYPVQFD
For B1, the “glycan array binding signal (z-score)” value [1] was -0.141, the “glycan array binding signal (z-score)” value [2] was -0.488 and the “glycan array binding signal (z-score)” value [3] was -0.581. The “glycan array binding signal (z-score)” value [4] was 0.079, the “glycan array binding signal (z-score)” value [5] was 1.18 and the “glycan array binding signal (z-score)” value [6] was -0.452. The “glycan array binding signal (z-score)” value [7] was 1.51, the “glycan array binding signal (z-score)” value [8] was -0.331 and the “glycan array binding signal (z-score)” value [9] was -0.507. The “glycan array binding signal (z-score)” value [10] was 1.53, the “glycan array binding signal (z-score)” value [11] was -1.67 and the “glycan array binding signal (z-score)” value [12] was -0.365. The “glycan array binding signal (z-score)” value [13] was -1.02, the “glycan array binding signal (z-score)” value [14] was -0.841 and the “glycan array binding signal (z-score)” value (Neu5Ac(a2-6)GalNAc) was 0.408. For the same binder, the “glycan array binding signal (z-score)” value [15] was -0.166, the “glycan array binding signal (z-score)” value [16] was 0.536 and the “glycan array binding signal (z-score)” value [17] was -0.327. For the same binder, the “glycan array binding signal (z-score)” value (Neu5Ac(a2-8)Neu5Ac) was -0.679, the “glycan array binding signal (z-score)” value [18] was -0.392 and the “glycan array binding signal (z-score)” value [19] was -0.074. For the same binder, the “glycan array binding signal (z-score)” value [20] was -0.419, the “glycan array binding signal (z-score)” value [21] was -0.45 and the “glycan array binding signal (z-score)” value [22] was 0.051. For the same binder, the “glycan array binding signal (z-score)” value [23] was -0.257, the “glycan array binding signal (z-score)” value [24] was 0.354 and the “glycan array binding signal (z-score)” value [25] was -0.666. The “glycan array binding signal (z-score)” value [26] was -0.057, the “glycan array binding signal (z-score)” value (Neu5Ac(b2-6)GalNAc) was 0.005 and the “glycan array binding signal (z-score)” value [27] was -1.4. The “glycan array binding signal (z-score)” value [28] was 2.38, the “glycan array binding signal (z-score)” value [29] was 0.766 and the “glycan array binding signal (z-score)” value [30] was -0.419. The “glycan array binding signal (z-score)” value [31] was 0.076, the “glycan array binding signal (z-score)” value (Neu5Gc(a2-3)Gal(b1-4)Glc) was 0.504 and the “glycan array binding signal (z-score)” value [32] was 0.142. For the same binder, the “glycan array binding signal (z-score)” value [33] was 0.508, the “glycan array binding signal (z-score)” value [34] was -0.439 and the “glycan array binding signal (z-score)” value (Neu5Gc(a2-6)GalNAc) was -1.08. The “glycan array binding signal (z-score)” value [35] was 0.729.
